The text below walks through data of PMC11461821, “Structure of a Rhs effector clade domain provides mechanistic insights into type VI secretion system toxin delivery” (Nature Communications, 2024).

These are yes or no findings as the source states them, for the method shown. Some results given as binding are weak or reduced against the parent protein; the word gives no strength.

The test addresses Tse15NN Rhs domain with uncleaved toxin domain (residues 335-1590, D1369N, D1391N) (Acinetobacter baumannii (strain AB307-0294)). Briefly: cryo-EM structure; single particle cryo-EM of purified protein, 3 mg/mL, UltrAuFoil grids; Tse15 at 200 kV (Talos Arctica), Tse15NN at 300 kV (Titan Krios); both purified.

B1: Tse15 N-terminal clade domain (residues 1-334) (domain or fragment)
chain: MAKENTQQKEIKRQPAVELAVFNLNSVTDVADLQMIASQVQLYLQVCGNTTLEQIKSKANITTVANIFALTGSVLDLMLYATDKKTGDAAVQRGALLAANLIGLFSEPNNEAHARMALRPMFGLMAECLYRENGKIKETDIKRLGLHLNAMIAGDLENFLKETQAKLSSLLISATTLGVTILQSMATPATGINAGITTAAGASAEKRDPKLKFTNWAVPLIDLLGKPSQANLTPKIQPNITSRLQQEATQAIAALSQTLQQQANAGQKYTLAWLLQETLKAIQALENKGNASVPINQTGEYERHTKGDTLEFVSLQADALNAPPCEGADSQSGK
notes: Tse15, A. baumannii AB307-0294, N-terminal clade domain, residues 1-334; Residues 14-333 are modelled in the structure; also called N-terminal clade-specific domain; not shown: StrepTag-II, N-terminal, kept
For the molecule B1, the binding result is on record as “binds”.
